# About 22,000 (6.9%) of roughly 320,000 compounds were called active. Inconclusive means that the source gave no clear call. Such entries were picked first, then a sample of the others. The call rests on the fitted dose curve; in most records, active means well fitted inhibition curve with a large enough effect; inconclusive means small, poorly fitted or top-dose-only effect, or another doubt; inactive means no such curve, though single readings can be large or run the other way. Potencies of inconclusive entries are doubtful fits and often do not repeat.
# Experiment: Primary qHTS for delayed death inhibitors of the malarial parasite plastid, 96 hour incubation
# Conditions: P. falciparum luciferase reporter growth; series mostly up to 28.7 µM; activity change, negative = inhibition: at the top concentration
# Outline: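 Delayed-death screen, second-generation endpoint: infected erythrocytes, 2% hematocrit, 0.05% parasitemia final; 96 hours at 37 C, 5% CO2; luciferase detection reagent; luminescence decrease equals reduced growth.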
# On the % scale 0 is the no-effect control and ±100 the full control effect; potency means the concentration at half of the fitted maximal effect.
SMILES,Potency,"activity change, negative = inhibition"
O=C(Nc1ccc(C(=O)NC2CCCCC2)cc1)c1cccnc1,"inconclusive: 18.5 µM [inhibitor, single point]",
Nc1nc(SCc2ccccc2)c2[nH]cnc2n1,,inactive: 24.1%
CCn1cc(C(=O)OCC(=O)OC2CC(C)CCC2C(C)C)c(=O)c2ccc(C)nc21 (stereo not given),"inconclusive: 16.5 µM [inhibitor, single point]",
COc1cc(OC)cc(C(=O)NCc2ccc3c(c2)OCO3)c1,"inconclusive: 4.65 µM [inhibitor, partial curve]",
O=C(O)c1ccc(N/N=C/c2ccnc3ccccc23)cc1,,inactive: 175%
COC(=O)c1cc(NS(=O)(=O)c2ccc3c(c2)CCC(=O)N3)cc(C(=O)OC)c1,"inconclusive: 0.738 µM [inhibitor, partial curve, poor fit]",
OCCNCCCCOc1cccc(Br)c1,"inconclusive: 13.1 µM [inhibitor, single point]",
NC(=O)c1ccc(SCC(=O)OCC(=O)NCC2CCCCC2)c([N+](=O)[O-])c1,,inactive: 7.33%
O=C(CCCOc1ccccc1)N1CCN(c2ccccc2)CC1,"inconclusive: 20.8 µM [inhibitor, single point]",
Cc1ccc(S(=O)(=O)CCCS(=O)(=O)c2ccc(C)cc2)cc1,"inconclusive: 0.131 µM [inhibitor, full curve, poor fit]",
O=C(Cc1cccs1)Nc1cccc(-c2nc3ccccc3o2)c1,"inconclusive: 14.7 µM [inhibitor, partial curve, poor fit]",
CCN(C(=O)COC(=O)c1cnc(C)cn1)c1c(N)n(Cc2ccccc2)c(=O)[nH]c1=O,,inactive: 5.79%
CCn1ccnc1C(O)c1ccccc1OC (stereo not given),"inconclusive: 13.1 µM [inhibitor, single point]",
Cc1c(Br)c([N+](=O)[O-])nn1CC(=O)N(C)Cc1ccccc1,,inactive: 21.6%
CCOC(=O)Oc1ccc2c(c1)C(C)=CC(C)(C)N2C(=O)OCC,"inconclusive: 10.4 µM [inhibitor, single point]",
COc1cc(/C=N/NC(=O)c2ccc(=O)[nH]n2)ccc1O,"inconclusive: 10.4 µM [inhibitor, single point]",
O=C(CN(CCO)c1ccccc1)Nc1ccc(Cl)c(S(=O)(=O)N2CCOCC2)c1,"inconclusive: 1.17 µM [inhibitor, partial curve, poor fit]",
Cc1ccc(S(=O)(=O)N(C)CC(=O)NCC(c2ccc(F)cc2)N2CCOCC2)cc1 (stereo not given),active: 10.4 µM,
CCCN1CCN(C(=O)c2oc3ccccc3c2NC(=O)C2CC2)CC1,"inconclusive: 18.5 µM [inhibitor, partial curve, poor fit]",
O=S(=O)(c1ccc2nc(Cc3ccccc3)[nH]c2c1)N1CCOCC1,"inconclusive: 18.5 µM [inhibitor, single point]",
O=C(CCS(=O)(=O)Cc1ccc(Cl)cc1)NCCc1ccccc1,,inactive: 5.76%
O=S(=O)(c1ccc(Cl)s1)N1CCCc2cccc(O)c21,,inactive: 53.5%
O=C1c2ccccc2C(=O)N1CC(O)COc1ccc(Br)cc1 (stereo not given),"inconclusive: 18.5 µM [inhibitor, single point]",
C[n+]1ccccc1/C=C/c1ccc2ncccc2c1,"inconclusive: 11.7 µM [inhibitor, partial curve, poor fit]",

SMILES,Potency,"activity change, negative = inhibition"
N#CCSc1nc2c(sc(=S)n2Cc2ccco2)c(=O)n1-c1ccc(F)cc1,"inconclusive: 1.17 µM [inhibitor, partial curve, poor fit]",
COc1ccc(NC(=O)CC2CCCCC2)cc1OC,active: 2.62 µM,
Cc1cccc(OCc2nnc(SCC(=O)N3CCCCC3)o2)c1,,inactive: -28.5%
Cc1ccc(S(=O)(=O)Cc2sc3ccccc3[n+]2C)cc1,"inconclusive: 18.5 µM [inhibitor, single point]",
CCn1c(SCc2ccc(C(=O)Nc3nccs3)cc2)nnc1-c1ccc(NC(C)=O)cc1,active: 13.1 µM,
CCC/C(O)=C1\C(=O)CCCC1=NC(C)C(=O)O (stereo not given),active: 3.7 µM,
Cc1ccc(C)c2c1N(Cc1ccccc1)C(=O)C21OCCO1,"inconclusive: 11.7 µM [inhibitor, single point]",
NC(=O)CSc1nc2cc([N+](=O)[O-])ccc2n1-c1cccc(C(F)(F)F)c1,"inconclusive: 18.5 µM [inhibitor, single point]",
Cc1ccc(S(=O)(=O)NCCc2nnc3ccc(SCC(=O)Nc4nc(C)cs4)nn23)cc1,"inconclusive: 11.7 µM [inhibitor, partial curve]",
O=C(c1ccccc1)N1CCC(CC2CC(c3cccc(Br)c3)=NO2)(C(=O)NCC2CCCCC2)CC1 (stereo not given),active: 5.22 µM,
Oc1ccc(C=Nc2ccc3ncccc3c2)c(O)c1,,inactive: -5.99% [at 5.75 µM]
O=C(/C=C/c1cccc([N+](=O)[O-])c1)NC(=S)Nc1ccccc1C(=O)O,,inactive: 2.07%
COc1ccc(-c2cn(-c3ccc(Cl)cc3)c3[n+]2CCCCC3)cc1,"inconclusive: 0.415 µM [inhibitor, full curve]",
COc1cc(-c2cc(C(=O)N3CCCCCC3)c3ccccc3n2)cc(OC)c1OC,"inconclusive: 11.7 µM [inhibitor, partial curve]",
COc1ccc(C(=O)CC(CC(=O)c2ccc(OC)cc2)C(=O)O)cc1,,inactive: 91.1%
CC(=O)N1CCCc2cc(S(=O)(=O)N(C)CCC#N)ccc21,"inconclusive: 5.86 µM [inhibitor, partial curve, poor fit]",
CCn1c(C)nc2cc(C(=O)N=Nc3c(O)[nH]c4c(C)cc(C)cc34)ccc21,active: 6.57 µM,
O=C(c1ccc([N+](=O)[O-])cc1)N1CCN(C(=O)C2CCCCC2)CC1,,inactive: 33%
CC(=O)c1ccc(NC(=O)CC2S/C(=N/N=C3CCCCCC3)NC2=O)cc1 (stereo not given),"inconclusive: 16.5 µM [inhibitor, single point]",
COc1cccc(N2C(=O)C(CC(=O)Nc3ccccc3)N(C3CCCCC3)C2=O)c1 (stereo not given),"inconclusive: 18.5 µM [inhibitor, partial curve, poor fit]",
N#Cc1c(C#N)c(-c2ccccc2)n(-c2ccc(C(=O)O)cc2)c1N,"inconclusive: 0.104 µM [inhibitor, full curve, poor fit]",
CCOc1ccc(S(=O)(=O)N2CCN=C2c2ccccc2)cc1,"inconclusive: 18.5 µM [inhibitor, single point]",
O=C(CN1C(=O)S/C(=C\c2ccc(Cl)cc2)C1=O)NCCCn1ccnc1,"inconclusive: 11.7 µM [inhibitor, partial curve, poor fit]",
Brc1ccc(-c2csc(/N=C/N3CCOCC3)n2)cc1,,inactive: 66.3%

# Entries of single compounds, looked up by structure:
# O=C(c1ccc([N+](=O)[O-])cc1)N1CCN(C(=O)C2CCCCC2)CC1 reads activity change, negative = inhibition: inactive: 33%
# O=C(CN1C(=O)S/C(=C\c2ccc(Cl)cc2)C1=O)NCCCn1ccnc1 reads Potency: inconclusive: 11.7 µM [inhibitor, partial curve, poor fit]
# COc1ccc(NC(=O)CC2CCCCC2)cc1OC reads Potency: active: 2.62 µM
# CCC/C(O)=C1\C(=O)CCCC1=NC(C)C(=O)O (stereo not given) reads Potency: active: 3.7 µM

# Additional records follow.

SMILES,Potency,"activity change, negative = inhibition"
CCN(CC)C(=O)C1CCCN(c2ncnc3c2cnn3-c2cccc(C)c2)C1 (stereo not given),"inconclusive: 6.57 µM [inhibitor, partial curve, poor fit]",
Cc1cccc(CC(C)NC(=O)c2oc3c(F)cccc3c2C)n1 (stereo not given),"inconclusive: 18.5 µM [inhibitor, single point]",
CCC(C)(C)n1nnnc1C(c1cccs1)N1CC=C(c2ccc(F)cc2)CC1 (stereo not given),"inconclusive: 10.4 µM [inhibitor, single point]",
COCCn1c(SCC(=O)Nc2ccccc2OC)nc2ccccc2c1=O,,inactive: -28.3%
Cc1cc2[nH]c(=O)c(=O)[nH]c2cc1S(=O)(=O)N1CCN(c2cccc(C(F)(F)F)c2)CC1,"inconclusive: 13.1 µM [inhibitor, single point]",
CCOc1cc(/C=N/NC(=O)CN2CCOCC2)ccc1OCc1ccccc1,"inconclusive: 18.5 µM [inhibitor, single point]",
CCc1ccc(CN2CCC(Oc3ccc(C(=O)N4CCCC4)cc3)CC2)cc1,"inconclusive: 6.57 µM [inhibitor, partial curve]",
CCNC(=S)NN(c1ccccc1)c1ccccc1,"inconclusive: 8.28 µM [inhibitor, partial curve, poor fit]",
CC(C)(C)n1nnnc1C(c1ccccn1)N(Cc1ccccc1)Cc1ccc(Cl)cc1 (stereo not given),active: 1.47 µM,
O=C1C(=O)N(CCCN2CCOCC2)C(c2ccc(F)cc2)/C1=C(\O)c1ccc2c(c1)OCCO2 (stereo not given),"inconclusive: 10.4 µM [inhibitor, single point]",
C/C(=N\Nc1ccccc1C)c1cccnc1,,inactive: 9.08%
CC(C)(C)c1cc(CCC(=O)NCCc2ccccn2)cc(C(C)(C)C)c1O,active: 11.7 µM,
COc1cccc(OC)c1OCCN1CCN(C(c2ccccc2)c2ccccc2)CC1,"inconclusive: 11.7 µM [inhibitor, single point]",
Cc1ccc(S(=O)(=O)N2CCN(C(=O)COC(=O)C3(C)CC3(Cl)Cl)CC2)c(C)c1 (stereo not given),"inconclusive: 10.4 µM [inhibitor, single point]",
Cc1cc2nc(-c3ccncc3)cc(C(F)(F)F)n2n1,"inconclusive: 18.5 µM [inhibitor, single point]",
CSc1ccccc1NC(=O)Nc1ccc(Cl)cc1,"inconclusive: 16.5 µM [inhibitor, single point]",
CN(C)c1ccc(/C=C/c2nc3ccccc3s2)cc1,"inconclusive: 0.0029 µM [inhibitor, full curve, poor fit]",
CCn1c(/C=C/c2ccccc2Cl)nc2ccccc2c1=O,active: 1.65 µM,
O=C(COc1ccccc1)Nc1ccccc1N1CCN(c2ccc(F)cc2)CC1,,inactive: -20.6%
CN(Cc1ccccc1)S(=O)(=O)c1ccc(Cl)c(C(=O)NCCc2ccccn2)c1,,inactive: -7.81%
Nc1c(C(=O)NCCN2CCOCC2)c2nc3ccccc3nc2n1CCc1ccccc1F,active: 13.1 µM,
COc1cc(/C=N/NC(=O)/C(=C\c2ccc3c(c2)OCO3)NC(=O)c2ccccc2)ccc1O,"inconclusive: 1.47 µM [inhibitor, full curve, poor fit]",

# Source: PubChem BioAssay AID504834 (National Center for Advancing Translational Sciences (NCATS), 2011)
